In the supplement of paper PMC3682954:
Counter-ions that a name gives are not always drawn. ± gives the standard deviation of the averaged measurements. The list shows a part of the results. Most values come without repeats; read them as rough.

Test system: RAW 264.7
Assay: HMGB1-induced TNF-alpha production relative to HMGB1-stimulated control; higher = more TNF-alpha secretion (less inhibition)
Conditions: stimulus: HMGB1 5 ug/ml, 18 h
[1] = compound concentration: 1 ug/ml

| Compound | HMGB1-induced TNF-alpha production (compound concentration: 3 uM) [%] | HMGB1-induced TNF-alpha production [1] [%] |
| --- | --- | --- |
| CN(C)CCCO[C@@H]1[C@H]2OC(C)(C)O[C@H]2O[C@@H]1[C@H](O)CO [Amiprilose hydrochloride] | 99.1 ± 21 |  |
| CN(C)CCCO[C@@H]1[C@H]2OC(C)(C)O[C@H]2O[C@@H]1[C@H](O)CO | 103 |  |
| C[C@]12CC[C@@H]3c4ccc(O)cc4CC[C@H]3[C@@H]1C[C@@H](O)[C@@H]2O | 83.9 |  |
| C[C@]12CC[C@@H]3c4ccc(O)cc4CC[C@H]3[C@@H]1C[C@@H](O)[C@@H]2O [Estriol] | 111 ± 22 |  |
| OC1CCN2Cc3ccccc3N=C12 (configuration not stated) [Peganine] |  | 74.2 |
| CCCCC(=O)O[C@]1(C(=O)CO)CC[C@H]2[C@@H]3CCC4=CC(=O)CC[C@]4(C)[C@H]3[C@@H](O)C[C@@]21C [Hydrocortisone 17-valerate] |  | 37.4 |
| CCCCC(=O)O[C@]1(C(=O)CO)CC[C@H]2[C@@H]3CCC4=CC(=O)CC[C@]4(C)[C@H]3[C@@H](O)C[C@@]21C | 47.7 |  |
| CCc1cccc2c3c([nH]c12)C(CC)(CC(=O)O)OCC3 (configuration not stated) | 98.2 |  |
| CCc1cccc2c3c([nH]c12)C(CC)(CC(=O)O)OCC3 (configuration not stated) [Etodolac] | 102 ± 4 |  |
| Cc1noc(NS(=O)(=O)c2ccc(N)cc2)c1C | 52 |  |
| Cc1noc(NS(=O)(=O)c2ccc(N)cc2)c1C [Sulfisoxazole] | 63.7 |  |
| CC[N+](CC)(CC)CCC(O)(c1ccccc1)C1CCCCC1 (configuration not stated) [Tridihexethyl chloride] | 153 |  |
| O=C1NCC=C2c3cccc(Cl)c3NC12 (configuration not stated) [8-Chlro-1-tetrahydronorharmanone] |  | 94 |
| OCCOCCN1CCN(C(c2ccccc2)c2ccc(Cl)cc2)CC1 (configuration not stated) | 99 |  |
| OCCOCCN1CCN(C(c2ccccc2)c2ccc(Cl)cc2)CC1 (configuration not stated) [Hydroxyzine dihydrochloride] | 77.4 |  |
| C=CC1=C(C(=O)O)N2C(=O)[C@@H](NC(=O)/C(=N\OCC(=O)O)c3csc(N)n3)[C@H]2SC1 | 83.9 |  |
| C=CC1=C(C(=O)O)N2C(=O)[C@@H](NC(=O)/C(=N\OCC(=O)O)c3csc(N)n3)[C@H]2SC1 [Cefixime] | 78.1 |  |
| Cc1cc(-n2c(=O)[nH]c(=O)n(C)c2=O)ccc1Oc1ccc(SC(F)(F)F)cc1 [Toltrazuril] | 103 ± 36 |  |
| Cc1cc(-n2c(=O)[nH]c(=O)n(C)c2=O)ccc1Oc1ccc(SC(F)(F)F)cc1 | 93.8 |  |
| CCCn1c(=O)c2[nH]c(-c3ccc(S(=O)(=O)O)cc3)nc2n(CCC)c1=O [1,3-Dipropyl-8-p-sulfophenylxanthine] | 96.5 |  |
| Cc1ccccc1N1C(=O)c2cc(S(N)(=O)=O)c(Cl)cc2NC1C (configuration not stated) [Metolazone] | 87.8 ± 20 |  |
| Cc1ccccc1N1C(=O)c2cc(S(N)(=O)=O)c(Cl)cc2NC1C (configuration not stated) | 93.4 |  |

An excerpt of these results, with tabs.
Compound	HMGB1-induced TNF-alpha production (compound concentration: 3 uM) [%]	HMGB1-induced TNF-alpha production [1] [%]
C=CC1=C(C(=O)O)N2C(=O)[C@@H](NC(=O)/C(=N\OCC(=O)O)c3csc(N)n3)[C@H]2SC1	83.9	
Cc1ccccc1N1C(=O)c2cc(S(N)(=O)=O)c(Cl)cc2NC1C (configuration not stated) [Metolazone]	87.8 ± 20	
